Test results published in PubChem BioAssay AID624404 (Broad Institute, 2012).
The campaign covered roughly 1,800 compounds. About 710 (39%) were called active. The shares of active, inactive and inconclusive entries below differ from those in the screen.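 Rule for the calls: active = luciferase signal rise whose fitted curve crosses a set activity limit at or below the top valid tested dose; inconclusive = flat fit with 30 to 70% rise, or poor fit; inactive = signal falling, flat within 30%, or crossing above top dose.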

Experiment: luciferase activators in glycosylation-insensitive reporter cells, dose response, counter-screen for N-linked glycosylation inhibitor project, D54 LucT cells, luminescence, cherry pick (AID 624404);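 note: 0% = median neutral control signal and 100% = twice that signal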
Conditions: D54 LucT luciferase reporter counterscreen, 24 h; at 19.5 µM (top of the series) unless noted

| Structure (SMILES) | activity increase (luciferase signal) |
| --- | --- |
| CC(CCc1ccccc1)NC(=O)c1ccc(NC(=O)c2ccccc2)cc1 (stereo unspecified) | inconclusive: 60.4% |
| CC(=O)Cn1ncc(Br)c(Br)c1=O | inactive: 67.2% |
| COc1cc(C(=O)OC2CCCCC2=O)cc(OC)c1C (stereo unspecified) | inconclusive: 24.3% |
| CC[C@@H]1CC=C[C@H]2[C@H]1C(=O)N(Cc1ccccc1)[C@H]2c1ccoc1 | inactive: 8.68% |
| O=c1[nH]c(=O)n(C2CC(O)C(CO)O2)cc1Br (stereo unspecified) | inconclusive: 70.7% |
| CC(C)Oc1ccccc1C1CC(=O)Nc2cc3c(cc21)OCCO3 (stereo unspecified) | inconclusive: -7.01% |
| CCN(CC(=O)Nc1ccccc1-c1ccccc1)Cc1nc2ccccc2c(=O)[nH]1 | inconclusive: 71.3% |
| Nc1nc(=S)c2ncn([C@@H]3O[C@H](CO)[C@@H](O)[C@H]3O)c2[nH]1 | inconclusive: 18.3% |
| CCc1ccc2nc3nc(C)cc(C)c3c(N)c2c1 | inactive: -2.78% |
| Cc1ccc(-c2cnc(C3CC3)o2)cc1S(=O)(=O)Nc1ccccc1 | inactive: 28.3% |
| COc1cc(Cl)c(C)cc1NC(=O)CN1CCN(C(=O)C2CC2)CC1 | inconclusive: 32.4% |
| COc1ccc(Nc2c3ccccc3nc3ccccc23)cc1 | inactive: -37.8% |
| CCOC(=O)c1cc2[nH]c3ccccc3c2[n+](-c2ccc([N+](=O)[O-])cc2)c1N | inconclusive: 46.1% |
| c1ccc2sc(Sc3ncnc4sccc34)nc2c1 | inactive: 2.04% |
| CCOC(=O)c1ccc(Oc2cc(C)nc(SC)n2)cc1 | inactive: -2.48% |
| COc1ccc(C(=O)Nc2ccc3[nH]c(-c4cccc(OC)c4)cc(=O)c3c2)cc1 | inconclusive: 53.2% |
| O=C(COc1ccc(/C=N/NC(=O)c2cc3ccccc3o2)cc1Cl)Nc1ccccc1 | inactive: 4.64% |
| O=C(CC1Sc2ccccc2NC1=O)NNc1ccc(Cl)c(Cl)c1 (stereo unspecified) | inactive: 28% |
| COc1ccc(CC(=O)NCc2ccccc2)cc1 | inconclusive: 63.5% |
| COc1ccc(S(=O)(=O)N2CCCOC2CNC(=O)C(=O)NCCc2ccco2)cc1C (stereo unspecified) | inconclusive: 43.5% |
| COc1cc(C(=O)N/N=C/c2cc([N+](=O)[O-])cs2)cc(OC)c1OC | inconclusive: 15.7% |
| CCOC(=O)C(C)Oc1cccc2c(=O)n(CC(=O)NCc3ccco3)ccc12 (stereo unspecified) | inconclusive: 51.5% |

| Structure (SMILES) | activity increase (luciferase signal) |
| --- | --- |
| O=C1/C(=C\c2ccc(Cl)cc2)CCC1CNc1ccc(Cl)cc1 (stereo unspecified) | inconclusive: 26.6% |
| COc1ccc(S(=O)(=O)Nc2c(C(=O)O)[nH]c3ccc(OC)cc23)c(OC)c1 | inactive: 26.5% |
| Cc1ccccc1NC(=O)Cn1nnc(C(=O)NCc2ccco2)c1N | inconclusive: 52.7% |
| COc1cccc(-n2c(SCC(=O)NC3CCCCC3)nc3n[nH]c(C)c3c2=N)c1 | inactive: 4.88% |
| Cc1nnc2c(NC(C)C)nc3ccccc3n12 | inconclusive: 38.8% |
| CCCCN(CC)CCCNC(=O)c1cc2c(=O)n(C)c3ccccc3c2n1C | inconclusive: 49.6% |
| CCOC(=O)c1c(NC(C)=O)sc2c1CCC(C=O)=C2Sc1ccccc1 | inactive: -5.28% |
| COc1cc(-c2cc(-c3ccc(O)cc3)nc(N)c2C#N)ccc1O | inconclusive: 82.1% |
| CC(=O)N1N=C(c2ccccc2)OC1c1ccc([N+](=O)[O-])s1 (stereo unspecified) | inactive: 34.8% |
| COc1ccccc1OCC(=O)NNC(=O)c1ccoc1C | inactive: 17.5% |
| O=C(CCl)N1c2ccccc2Sc2c1ccc1ccccc21 | inconclusive: 4.4% |
| Cn1cnc([N+](=O)[O-])c1S(=O)(=O)c1cccc(Cl)c1 | inconclusive: 25.4% |
| CC(=O)Nc1cccc(-c2ccnc3c2CC(C)(C(=O)NCc2ccc(N(C)C)cc2)O3)c1 (stereo unspecified) | inconclusive: 56.9% |
| N#CCC(CNc1ncc(C(F)(F)F)cc1Cl)OC(=O)c1ccc(Cl)cc1Cl (stereo unspecified) | inactive: 13.4% |
| Cc1[nH]nc2c1C(c1cccc(O)c1)C1=C(CC(C)(C)CC1=O)N2 (stereo unspecified) | inactive: -7.35% |
| Cc1ccccc1NS(=O)(=O)c1ccc2c3c(cccc13)C(=O)N2C | inconclusive: 58.1% |
| CC(=O)Nc1cccc(-c2ccnc3c2CC(C(=O)NCc2cccc(Cl)c2)O3)c1 (stereo unspecified) | inconclusive: 58.9% |
| COCCCNC(=O)c1cccc2c(-c3ccc(O)c(OC)c3)coc12 | inconclusive: 115% |
| Oc1ccc(CCNc2c3ccccc3nc3ccccc23)cc1O | inconclusive: 41.2% [at 5 µM] |
| COc1ccc(CCNc2c3ccccc3nc3ccccc23)cc1OC | inconclusive: 2.72% |
| CC(C)Nc1ccc(C(CC(N)=O)NC(=O)c2ccc(Br)cc2)cc1[N+](=O)[O-] (stereo unspecified) | inconclusive: 9.07% |
| CCN1CCN(c2ccc([N+](=O)[O-])cc2C(=O)c2ccc(Cl)cc2)CC1 | inconclusive: 9.37% |

6 of the compounds above, tab-delimited.
Structure (SMILES)	activity increase (luciferase signal)
O=C(CCl)N1c2ccccc2Sc2c1ccc1ccccc21	inconclusive: 4.4%
Cn1cnc([N+](=O)[O-])c1S(=O)(=O)c1cccc(Cl)c1	inconclusive: 25.4%
CC(=O)Nc1cccc(-c2ccnc3c2CC(C)(C(=O)NCc2ccc(N(C)C)cc2)O3)c1 (stereo unspecified)	inconclusive: 56.9%
N#CCC(CNc1ncc(C(F)(F)F)cc1Cl)OC(=O)c1ccc(Cl)cc1Cl (stereo unspecified)	inactive: 13.4%
Cc1[nH]nc2c1C(c1cccc(O)c1)C1=C(CC(C)(C)CC1=O)N2 (stereo unspecified)	inactive: -7.35%
Cc1ccccc1NS(=O)(=O)c1ccc2c3c(cccc13)C(=O)N2C	inconclusive: 58.1%

(next part)

| Structure (SMILES) | activity increase (luciferase signal) |
| --- | --- |
| COc1ccc(OC)c(NS(=O)(=O)c2ccc(N3CCCC3=O)cc2)c1 | inconclusive: 10.7% |
| CCN1C(=O)c2cccc3c(S(=O)(=O)NCC4CCCO4)ccc1c23 (stereo unspecified) | inconclusive: 74.9% |
| CC1Cc2ccccc2N1C(=O)CSc1nn2c(=O)c(C(C)(C)C)nnc2s1 (stereo unspecified) | inactive: 21.3% |
| Cc1cc2c(cc(C(=O)OCC(=O)NCc3ccco3)n2C)s1 | inconclusive: 110% |
| COc1ccccc1NC(=O)Cn1nnc(-c2ccccc2NC(=O)c2ccco2)n1 | inconclusive: 26.9% |
| O=C(COc1ccc2c(-c3ccccc3)cc(=O)oc2c1)N[C@@H](Cc1c[nH]c2ccc(O)cc12)C(=O)O | inconclusive: 47% |
| CCOc1ccc(S(=O)(=O)Nc2cc(OC)ccc2OC)cc1 | inconclusive: -12.6% |
| CCN(CC(=O)NCc1ccc(F)cc1)C(=O)/C=C/c1ccc(OC)c(S(=O)(=O)NC(C)C)c1 | inconclusive: -1.96% |
| Cc1ccc(Nc2nnc(SCC(=O)Nc3ncc(S(=O)(=O)c4ccc([N+](=O)[O-])cc4)s3)s2)cc1 | inactive: 35.6% |
| COC(=O)Nc1nc(C)c(C(=O)c2ccccc2)s1 | inconclusive: 47.9% |
| CCc1nc(SCC(=O)c2ccc3c(c2)OCCO3)c2ccccc2n1 | inactive: 14.6% |
| COc1cc(OC)c2nc(C)c3c(c2c1)N(c1ccc(O)cc1)CC3 | inconclusive: 2.7% |
| CN(C)S(=O)(=O)c1ccc(N2CCCC2)c(C(=O)Nc2nc(-c3ccc(F)cc3)cs2)c1 | inactive: 11.7% |
| Cc1nn(CC(C)C)c(Cl)c1C(=O)N(c1ccc(Cl)cc1F)S(C)(=O)=O | inconclusive: -14.7% |
| CCC(=NCCc1c(C)[nH]c2ccc(OC(F)(F)F)cc12)C1=C(O)CC(c2ccccc2)CC1=O (stereo unspecified) | inconclusive: 6.68% |
| COc1ccc(NC(=O)C2Cc3c(-c4cccc(C(C)=O)c4)ccnc3O2)cn1 (stereo unspecified) | inactive: 50.2% |
| CCn1c(=O)c([N+](=O)[O-])c(Cl)c2ccccc21 | inconclusive: 36.7% |
| CN(C)c1ccc(-c2ccnc3c2CC(C)(C(=O)NCc2ccccc2)O3)cc1 (stereo unspecified) | inactive: 37% |
| Cc1cc(C)cc(NC2=NC3(CCCCC3)N=C(N)N2)c1 | inconclusive: 38.9% |
| CCc1nnc2n1N=C(c1ccc(OC)cc1)CS2 | inconclusive: 60.7% |
| O=C(CC1Nc2ccccc2NC1=O)Nc1ccccc1 (stereo unspecified) | inconclusive: 42.4% |
| CCCCn1c(SCC(=O)Nc2cc(C(F)(F)F)cc(C(F)(F)F)c2)nnc1C(CC)N(C)C (stereo unspecified) | inconclusive: 43.2% |

| Structure (SMILES) | activity increase (luciferase signal) |
| --- | --- |
| CCOc1ccc(Br)cc1C1=NN(C(C)=O)C(c2ccc([N+](=O)[O-])s2)O1 (stereo unspecified) | inactive: 30% |
| CCOC(=O)N1CCN(c2c(NCc3ccc(F)cc3)c(=O)c2=O)CC1 | inconclusive: 49.3% |
| COC(=O)c1ccc(C)c(NS(=O)(=O)c2ccc3c(c2)OCCO3)c1 | inconclusive: 31.1% |
| Cc1cc(OC(C)C)nc(NCc2ccccc2)n1 | inconclusive: 45.7% |
| Cc1ccc(C)c(OCC(O)CN2CCN(CCN3C(=O)c4cccc5cccc(c45)C3=O)CC2)c1 (stereo unspecified) | inconclusive: 9.76% |
| CCCOc1ccccc1C1CC(=O)NC2=C1C(=O)CCC2 (stereo unspecified) | inconclusive: 56.9% |
| CCc1ccc(N2CC(C(=O)Nc3ccccc3N3CCCC3)CC2=O)cc1 (stereo unspecified) | inactive: 18.3% |
| C=CCNc1nc(Nc2ccc(OC)c(OC)c2)c2sc(-c3ccccc3)cc2n1 | inconclusive: 47.3% |
| O=C(COC(=O)c1ccc(NS(=O)(=O)c2cccs2)cc1O)NCc1ccccc1 | inconclusive: 26.3% [at 5 µM] |
| O=[N+]([O-])c1ccc(Sc2cc[n+]([O-])c3ccccc23)c([N+](=O)[O-])c1 | inconclusive: 31.4% |
| COc1ccc(-c2ccnc(-c3ccncc3)n2)cc1 | inconclusive: 82.5% |
| CC1(C(=O)NCc2cccs2)Cc2c(-c3cccc(C(F)(F)F)c3)ccnc2O1 (stereo unspecified) | inconclusive: 58.5% |
| CCOc1ccc(S(=O)(=O)N2CCN=C2c2ccccc2)cc1 | inconclusive: 38.9% |
| COc1cc2c(c(OC)c1OC)-c1ccc(OC)c(=O)cc1[C@@H](N(C)CC#CCO)CC2 | inconclusive: 62% |
| CN(C)/N=C/C=C1\CCC/C(=C\c2ccc(F)c(F)c2)C1=O | inconclusive: 27.3% |
| COCCCNc1nnc(Cc2ccc(Cl)cc2)c(=O)[nH]1 | inconclusive: 29.5% |
| Cc1cc(NC(=O)CSc2nc3sc(C)c(C)c3c(=O)n2C2CCCC2)no1 | inconclusive: 42.9% |
| Cc1ccccc1OCCOC(=O)c1c(-c2ccccc2)noc1C | inactive: 5.79% |
| CN(C)c1ccc(CNC(=O)C2(C)Cc3c(-c4ccc5c(c4)OCO5)ccnc3O2)cc1 (stereo unspecified) | inactive: 37% |
| Cc1cc(NC(=O)NC(=O)c2ccccc2NC(=O)C(C)N)ccc1Oc1ncc(Br)cn1 (stereo unspecified) | inconclusive: 9.87% |
